Assay results from US8455223B2, “Dehydrogenases, the derivatives thereof, and method for the production of optically active alkanols” (BASF SE, priority 2005, dated 2013).

How the values were obtained:
[1] = tested on: Comparative enzyme EP 1152054 SEQ ID NO: 1; assay: Relative activity of dehydrogenase for various substrates, with cofactor regeneration in the 2-phase system (Example 3); type: biochemical; conditions: two-phase (MTBE: aqueous), value in brackets, configuration R/S printed in cell
[2] = tested on: Comparative enzyme EP 1152054 SEQ ID NO: 1; assay: Relative activity of dehydrogenase for various substrates, without cofactor regeneration (Example 1); type: biochemical; conditions: value in brackets
Description: (§1) Relative activity of the dehydrogenases of the invention for various substrates (optical purity in % ee is indicated in brackets)
(§2) The reaction was carried out without cofactor regeneration.
(§3) 180 μl of 50 mM Kpi buffer, including 1 mM MgCl2
(§4) 200 μl of NADPH, 10 mM stock solution
(§5) 100 μl of substrate, 1 M stock solution 500 μl of hexane
(§6) The reaction mixture was incubated at 37° C. and 1000 rpm for approx. 20 hours. It was then centrifuged at 20° C., the clear supernatant was removed and analyzed by chiral gas chromatography.

[3] = tested on: ADH-4 enzyme SEQ ID NO: 4; assay: Relative activity of dehydrogenase for various substrates, with cofactor regeneration in the 2-phase system (Example 3); type: biochemical, Candida
[4] = tested on: ADH-3 enzyme SEQ ID NO: 2; assay: Relative activity of dehydrogenase for various substrates, with cofactor regeneration, monophasic liquid system (Example 2); type: biochemical, Candida; conditions: value in brackets, configuration R/S printed in cell
Description: (§7) Relative activity of the dehydrogenases of the invention for various substrates (optical purity in % ee is indicated in brackets) with cofactor regeneration.
(§8) The reaction was carried out in a manner similar to example 1. Cofactor regeneration was carried out by way of addition of glucose and glucose dehydrogenase in a monophasic liquid system.

[5] = tested on: ADH-4 enzyme SEQ ID NO: 4; assay: as above; type: biochemical, Candida; conditions: value in brackets, configuration R/S printed in cell
Description: as §7, §8

[6] = tested on: ADH-3 enzyme SEQ ID NO: 2; assay: Relative activity of dehydrogenase for various substrates, with cofactor regeneration in the 2-phase system (Example 3); type: biochemical, Candida
[7] = tested on: ADH-3 enzyme SEQ ID NO: 2; assay: Relative activity of dehydrogenase for various substrates, without cofactor regeneration (Example 1); type: biochemical, Candida; conditions: value in brackets
Description: as §1, §2, §3, §4, §5, §6

[8] = tested on: ADH-4 enzyme SEQ ID NO: 4; assay: as above; type: biochemical, Candida; conditions: value in brackets
Description: as §1, §2, §3, §4, §5, §6

Molecule	optical purity [1] [% ee]	optical purity [2] [% ee]	optical purity ([3]; ADH-4 enzyme, […], value in brackets, configuration R/S printed in cell) [% ee]	optical purity [4] [% ee]	optical purity [5] [% ee]	optical purity ([6]; ADH-3 enzyme, […], value in brackets, configuration R/S printed in cell) [% ee]	optical purity [3]	optical purity [7] [% ee]	optical purity [8] [% ee]	optical purity [6]
4-chloro-methoxyacetophenone [CMAP]	> 99	98								
CC(=O)c1ccccc1 [Acetophenone]		> 99								
O=C(CCl)c1ccc(F)cc1 [FCA, 4′-fluoro-2-chloro-acetophenone]			46	> 99	58	> 99				
O=C(CCl)c1cccc(Cl)c1 [m-DICAP, 2,3′-dichloro-acetophenone]		> 99		> 99	25		24.6 (6% S) % ee	> 99	12	100 (>99% R) % ee
O=C(CCl)c1ccc(Cl)cc1 [p-DICAP, 2,4′-dichloro-acetophenone]				> 99	44		27.6 (42% S) % ee			30.4 (>99% R) % ee
